Record: PubChem BioAssay AID1224830 (NIAID, 2016)

Screen: 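Regulators of TLR4 signalling towards TNF-alpha in macrophage-like cells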 (primary screen)
Cells: human THP-1 monocytic leukaemia cells, TNF dual-luciferase reporter clone, PMA-differentiated to macrophage-like cells
Knock-down reagent: siRNA pool against human genes, 50 nM
Duration: LPS for 4 h, given about 3 days after siRNA transfection
Conditions: bacterial LPS (TLR4 ligand), 10 ng/ml
Detection: 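Ratio of firefly to renilla light, scaled to the plate median and expressed as a robust z-score per replicate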
Reading the numbers: TNF reporter robust z-score: higher = stronger TNF reporter response to LPS
Call rule: 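Each well counts as active if its z-score is over 2.8 or under -1.5; controls are left without a call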
This is one part, drawn at random, of about 18,000 reagents tested. Over the whole deposit, about 2,900 (16%) got an active call. 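Calls are made per well; low scores hint the gene aids the LPS response, high scores that it dampens it.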 Unmarked entries are inactive. Repeated entries: four replicate wells of each siRNA pool.

PRPH
- TNF reporter robust z-score: 1.19

PRPH
- TNF reporter robust z-score: 0.49

PRPH
- TNF reporter robust z-score: 0.65

PRPH
- TNF reporter robust z-score: -0.74

TIGD6
- TNF reporter robust z-score: -1.91 (active)

TIGD6
- TNF reporter robust z-score: -1.35

TIGD6
- TNF reporter robust z-score: -1.87 (active)

TIGD6
- TNF reporter robust z-score: -1.47

TCAF2
- TNF reporter robust z-score: 0.94

TCAF2
- TNF reporter robust z-score: -0.05

TCAF2
- TNF reporter robust z-score: -0.48

TCAF2
- TNF reporter robust z-score: -0.02

RPL19
- TNF reporter robust z-score: -1.07

RPL19
- TNF reporter robust z-score: -0.13

RPL19
- TNF reporter robust z-score: -0.69

RPL19
- TNF reporter robust z-score: -0.73

LY6G6F
- TNF reporter robust z-score: 1.85

LY6G6F
- TNF reporter robust z-score: -1.25

LY6G6F
- TNF reporter robust z-score: 0.28

LY6G6F
- TNF reporter robust z-score: -0.05

OTUD7A
- TNF reporter robust z-score: 0.23

OTUD7A
- TNF reporter robust z-score: 0

OTUD7A
- TNF reporter robust z-score: -0.73

OTUD7A
- TNF reporter robust z-score: -0.78

ATRN
- TNF reporter robust z-score: -0.22

ATRN
- TNF reporter robust z-score: 1.13

ATRN
- TNF reporter robust z-score: -1.03

ATRN
- TNF reporter robust z-score: -0.23

EFHC2
- TNF reporter robust z-score: 1.11

EFHC2
- TNF reporter robust z-score: 0.1

EFHC2
- TNF reporter robust z-score: 1.49

EFHC2
- TNF reporter robust z-score: 0.84

YJEFN3
- TNF reporter robust z-score: 0.2

YJEFN3
- TNF reporter robust z-score: 0.4

YJEFN3
- TNF reporter robust z-score: 0.9

YJEFN3
- TNF reporter robust z-score: -0.27

SHMT1
- TNF reporter robust z-score: -0.44

SHMT1
- TNF reporter robust z-score: -0.56

SHMT1
- TNF reporter robust z-score: -0.78

SHMT1
- TNF reporter robust z-score: 0.48

DNAJC10
- TNF reporter robust z-score: -0.5

DNAJC10
- TNF reporter robust z-score: -0.81

DNAJC10
- TNF reporter robust z-score: -0.03

DNAJC10
- TNF reporter robust z-score: -0.52

NUP155
- TNF reporter robust z-score: -1.04

NUP155
- TNF reporter robust z-score: -1.28

NUP155
- TNF reporter robust z-score: -1.17

NUP155
- TNF reporter robust z-score: -0.75

MAP4K2
- TNF reporter robust z-score: 1.26

MAP4K2
- TNF reporter robust z-score: 0.37

MAP4K2
- TNF reporter robust z-score: -0.13

MAP4K2
- TNF reporter robust z-score: 1.66

HAUS1
- TNF reporter robust z-score: -0.85

HAUS1
- TNF reporter robust z-score: 0.05

HAUS1
- TNF reporter robust z-score: -0.63

HAUS1
- TNF reporter robust z-score: 1.02

MEA1
- TNF reporter robust z-score: 0

MEA1
- TNF reporter robust z-score: -0.39

MEA1
- TNF reporter robust z-score: -0.66

MEA1
- TNF reporter robust z-score: 0.2

Active calls, among the entries above:
TIGD6
- TNF reporter robust z-score: -1.91 (active)

TIGD6
- TNF reporter robust z-score: -1.87 (active)
